The other results are listed elsewhere or left out.

Chains of the proteins cited; added tags and fusions are not shown.
UniProt Q0JBA9, entry or part of it: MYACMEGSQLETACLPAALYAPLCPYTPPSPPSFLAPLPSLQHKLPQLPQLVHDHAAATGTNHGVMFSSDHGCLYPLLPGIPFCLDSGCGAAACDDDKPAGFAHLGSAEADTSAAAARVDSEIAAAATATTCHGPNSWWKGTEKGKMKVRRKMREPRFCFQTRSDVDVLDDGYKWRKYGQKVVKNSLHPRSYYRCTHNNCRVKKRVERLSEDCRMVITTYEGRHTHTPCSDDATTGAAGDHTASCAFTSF

For this experiment, the target named is OsWRKY34 (Oryza sativa, UniProt Q0JBA9 1-250). Put plainly: protein-binding microarray (RPBM); PBS, 2% BSA, 51.3 ng/ul salmon testes DNA, 50 uM zinc acetate, 200 nM TF, 25 C, 1 h; high values mean tight binding. The following applies: protein: recombinant; tags: N-terminal polyhistidine and DsRed monomer fusion (pET32a); label: CyDye5-dUTP incorporated in the synthesized complementary strand; 3' TTTTT single-stranded linker to array surface; dsDNA, one strand shown. An outline of the steps:
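Polyhistidine-tagged DsRed fusions of transcription factors, joined at the N-terminus, were expressed in E. coli BL21-CodonPlus and isolated on Ni–NTA. They were incubated at 200 nM for 1 h at 25 °C on a custom Agilent array, double-stranded and BSA-blocked, in PBS with 2% BSA, salmon testes DNA and 50 µM zinc acetate. The binding signal is per-feature fluorescence intensity (arbitrary units) read on an Axon 4000B scanner after washing.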
As to “TGCTGTAGTTGACTTATGGAATATTAAAATGCTGTTAATTCGGAGTCACCTAGTGCAG”, the binding signal was 8060 fluorescence intensity (a.u.).
In the case of “CATCCGTCGCTTCGCTTTCGTTCGAACGCGTTGGACCCAGCGGAGTCACCTAGTGCAG” it was 8600 fluorescence intensity (a.u.).
In the case of “ACTGTCCACTCACTTTTTCTTCACCCAGGAGACGAAATTTCGGAGTCACCTAGTGCAG” it was 11200 fluorescence intensity (a.u.); in that of “AATTCTCTCTCTCTCTCTTCTATCCGTGCGCCTCAACTTTCGGAGTCACCTAGTGCAG”, 14100 fluorescence intensity (a.u.); in that of “TGGTGGTCTTCTTTATCTTTACACATTGCCTTTGGCTAACCGGAGTCACCTAGTGCAG”, 10200 fluorescence intensity (a.u.).
Turning to “CCACTTTCTCTCTCTCTCTCTCTCTCTCTCTCTCGTCGCGCGGAGTCACCTAGTGCAG”, the binding signal was 8600 fluorescence intensity (a.u.).
For the sequence “TTGTTCAGTTGTGTCACCCCGGTCTCTAAACTTGGATTTGCGGAGTCACCTAGTGCAG”, the binding signal was 9010 fluorescence intensity (a.u.).
In the case of “TCGTTGACTTTCTTGCCGTCTCGCCGCCGCCGCCGCCATGCGGAGTCACCTAGTGCAG” it was 23600 fluorescence intensity (a.u.); in that of “ACATGGGAATTTTGGTGGGATGGGGATGGGGAATTGACCTCGGAGTCACCTAGTGCAG”, 14100 fluorescence intensity (a.u.); in that of “CTTTTCTCTCTCTCGGTCTCTCTCCCTTGCTTCCCTCTCTCGGAGTCACCTAGTGCAG”, 9150 fluorescence intensity (a.u.).
On to “GCTACTACCACATTATTGTGCTTGTTTTTTATACATATTACGGAGTCACCTAGTGCAG”, for which the binding signal was 10300 fluorescence intensity (a.u.).
With “TACTTATCCTGCGTTTCAAAGAGGACCTAAATCTTGTCTTCGGAGTCACCTAGTGCAG”, the binding signal is 8700 fluorescence intensity (a.u.).
As to “AATCTTTGACCCGCTGTCAGTTCATCATCCGTCTACTCTACGGAGTCACCTAGTGCAG”, the binding signal was 9620 fluorescence intensity (a.u.).
In the case of “TGTGTGATTGCTGTTCTTCTCTCTCGCGTCCACGTTCGCGCGGAGTCACCTAGTGCAG” it was 10500 fluorescence intensity (a.u.); in that of “AGCGCCGCCGCCACCACCACCACCGCCACTGCCACTATACCGGAGTCACCTAGTGCAG”, 9580 fluorescence intensity (a.u.).
On to “TCGTAAGATGCTCTTTTTTTTCTCCTTATACACTCATCATCGGAGTCACCTAGTGCAG”, for which the binding signal was 8900 fluorescence intensity (a.u.).
In the case of “ATGCGCAGTCAGCTACTGTCTTGTTTCTGCCATCAAGCTTCGGAGTCACCTAGTGCAG” it was 9200 fluorescence intensity (a.u.).
Consider “CGTGCCACATAAACAGCCCATACCTCCTCATTGCCTCGCCCGGAGTCACCTAGTGCAG”, for which the binding signal was 8400 fluorescence intensity (a.u.).
In the case of “GGCGTATGTTGTTTAGGCCTCTATTCGTATATGCACTTCCCGGAGTCACCTAGTGCAG” it was 9060 fluorescence intensity (a.u.); in that of “TACTGATCATGGCTGTTCTGAACCTTGTACTGTGCCATCTCGGAGTCACCTAGTGCAG”, 9040 fluorescence intensity (a.u.); in that of “TTTCCTTTACTTTGGTGGTTCTTTTTTTTTTCTTTGTTTCCGGAGTCACCTAGTGCAG”, 11400 fluorescence intensity (a.u.).
In the case of “AGTGGTTGTTTTCTTGGATGGTTGCCGCTGCGCCCTGACCCGGAGTCACCTAGTGCAG”, the binding signal was 11000 fluorescence intensity (a.u.).
For the sequence “CACACGCACGCTACCCGAACTACTGAGTTCTCTATTAAATCGGAGTCACCTAGTGCAG”, the binding signal was 8560 fluorescence intensity (a.u.).
